Measurements published in PMC2672614.
Results are given in words; binding and its absence hold for the method and conditions named. Binding seen in cells or lysates may run through a third protein. A yes stands for co-enrichment or nearness to the bait. Other partners may have been found.

Protein sequences, listed by entry. Tags and fused reporters are not part of them.
UniProt P0A8N5: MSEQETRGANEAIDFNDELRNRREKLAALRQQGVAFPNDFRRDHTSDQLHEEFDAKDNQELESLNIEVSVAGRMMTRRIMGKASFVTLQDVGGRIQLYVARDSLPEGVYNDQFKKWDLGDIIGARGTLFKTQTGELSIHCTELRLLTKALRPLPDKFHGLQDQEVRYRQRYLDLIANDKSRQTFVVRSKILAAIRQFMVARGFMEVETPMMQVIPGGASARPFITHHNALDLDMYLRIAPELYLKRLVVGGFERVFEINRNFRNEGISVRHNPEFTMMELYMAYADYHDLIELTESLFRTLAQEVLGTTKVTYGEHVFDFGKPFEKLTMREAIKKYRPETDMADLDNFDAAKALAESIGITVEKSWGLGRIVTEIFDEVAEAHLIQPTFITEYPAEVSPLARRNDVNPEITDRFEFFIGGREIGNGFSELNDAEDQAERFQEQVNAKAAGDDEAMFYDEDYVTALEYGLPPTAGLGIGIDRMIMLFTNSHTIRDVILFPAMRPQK

Target: T1, YagJ (E. coli K-12 W3110 (endogenous in DY330)) (UniProt P77169)
T1 sequence: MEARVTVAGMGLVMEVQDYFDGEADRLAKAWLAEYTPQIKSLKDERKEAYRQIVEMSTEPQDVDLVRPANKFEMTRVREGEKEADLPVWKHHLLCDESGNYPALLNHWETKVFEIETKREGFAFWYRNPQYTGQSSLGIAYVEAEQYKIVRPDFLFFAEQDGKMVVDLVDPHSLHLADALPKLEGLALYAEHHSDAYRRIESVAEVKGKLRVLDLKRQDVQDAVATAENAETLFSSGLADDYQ
Test: affinity purification with mass spectrometry; chromosomal C-terminal SPA tag (three FLAG sequences and a calmodulin-binding peptide separated by a protease cleavage site) on the bait in E. coli DY330 (W3110 background); tandem-affinity purification of endogenous complexes under standard culture conditions; copurifying proteins detected by LCMS and MALDI; pairs filtered at confidence >=0.75

binding: binds
Substance: lysine tRNA synthetase (LysU) (from UniProt P0A8N5 1-505) (enzyme)
